The values that follow come from paper PMC10252016, “Mutation in the Common Docking Domain Affects MAP Kinase ERK2 Catalysis and Stability” (Cancers, 2023).

The assay concerns the target phosphorylated ERK2 D321N (human) (UniProt P28482). Briefly: condition: 500 µM peptide in the syringe, 113 µM P-ERK2 D321N in the cell; ITC; Affinity ITC (TA-Instruments), reversed mode: ERK2 protein (90-145 µM) in the cell, peptide (500 µM) in the syringe; 30 °C; 20 mM Hepes pH 7.5, 0.15 M NaCl, 0.5 mM TCEP; single binding site model; both purified.

No constants are given. Whether binding was seen depends on the method and setting.

B1: Kinase Interaction Motif (KIM) peptide of DUSP6 (peptide)
peptide: GIMLRRLQKGNLPVRAL
notes: Solubilised in 5% DMSO and diluted in buffer; also called KIM of DUSP6; KIM peptide DUSP6; source: synthetic peptide, bought: GenScript
Turning to B1, the binding result is “no binding”.
